# Data as given in PubChem BioAssay AID1224831 (NIAID, 2016)
# Test: 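Genes that support or restrain LPS-induced TNF-alpha reporter activity in macrophage-like cells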 (follow-up of hits)
# System: human THP-1 B5 monocytic leukaemia cells carrying a TNF promoter luciferase reporter, made macrophage-like with PMA
# Reagents: single siRNA against human genes, 50 nM
# Duration: about 68 h of knock-down, then 4 h LPS
# Treatment: LPS (Salmonella minnesota, TLR-grade) at 10 ng/ml for 4 h; PMA 5 ng/ml present during knock-down
# Measured: 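Firefly to renilla luciferase ratio of a TNF promoter reporter after 4 h LPS, scaled to plate median, turned into robust z-score, averaged over replicates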
# Direction: TNF reporter z-score: higher = stronger LPS-induced TNF reporter signal; z-score, median over gene's siRNAs: higher = stronger TNF reporter signal across the gene's siRNAs
# Active means: 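Two-sided call: reduced or raised TNF reporter signal counts as active once mean z reaches about -1 or below, or about 1.5 or above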
# Meaning of the calls: active = changed TNF reporter (either direction); inactive = little change
# Here is an unselected part of about 3,500 deposited reagents. Of all reagents, 731 (21%) were called active. 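Active means either lowered or raised reporter signal; the gene-median score did not drive the per-siRNA calls.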 Reagents against one gene are numbered here.
gene,siRNA no.,"TNF reporter z-score, replicate mean","z-score, median over gene's siRNAs",activity call
SASS6 (SAS-6 centriolar assembly protein),1,0.33,1.5,inactive
SASS6 (SAS-6 centriolar assembly protein),2,0.93,1.5,inactive
SASS6 (SAS-6 centriolar assembly protein),3,2.07,1.5,active
SASS6 (SAS-6 centriolar assembly protein),4,2.36,1.5,active
SASS6 (SAS-6 centriolar assembly protein),5,2.33,1.5,active
SASS6 (SAS-6 centriolar assembly protein),6,0.4,1.5,inactive
OR10A5 (olfactory receptor family 10 subfamily A member 5),1,-1.59,0.235,active
OR10A5 (olfactory receptor family 10 subfamily A member 5),2,1.4,0.235,inactive
OR10A5 (olfactory receptor family 10 subfamily A member 5),3,0.92,0.235,inactive
OR10A5 (olfactory receptor family 10 subfamily A member 5),4,-0.04,0.235,inactive
OR10A5 (olfactory receptor family 10 subfamily A member 5),5,0.51,0.235,inactive
OR10A5 (olfactory receptor family 10 subfamily A member 5),6,-0.56,0.235,inactive
SLC25A44,1,1.41,1.04,inactive
SLC25A44,2,1.09,1.04,inactive
SLC25A44,3,1,1.04,inactive
SLC25A44,4,-0.79,1.04,inactive
SLC25A44,5,-0.34,1.04,inactive
SLC25A44,6,1.48,1.04,inactive
LKAAEAR1 (LKAAEAR motif containing 1),1,0.37,0.06,inactive
LKAAEAR1 (LKAAEAR motif containing 1),2,-0.23,0.06,inactive
LKAAEAR1 (LKAAEAR motif containing 1),3,1.13,0.06,inactive
LKAAEAR1 (LKAAEAR motif containing 1),4,-0.75,0.06,inactive
LKAAEAR1 (LKAAEAR motif containing 1),5,-0.33,0.06,inactive
LKAAEAR1 (LKAAEAR motif containing 1),6,0.35,0.06,inactive

Reprinted from the entries so far (3 entries):
gene,siRNA no.,"TNF reporter z-score, replicate mean","z-score, median over gene's siRNAs",activity call
OR10A5 (olfactory receptor family 10 subfamily A member 5),2,1.4,0.235,inactive
OR10A5 (olfactory receptor family 10 subfamily A member 5),3,0.92,0.235,inactive
OR10A5 (olfactory receptor family 10 subfamily A member 5),4,-0.04,0.235,inactive

Next results follow:
gene,siRNA no.,"TNF reporter z-score, replicate mean","z-score, median over gene's siRNAs",activity call
FAM131B (family with sequence similarity 131 member B),1,1.09,0.105,inactive
FAM131B (family with sequence similarity 131 member B),2,0.69,0.105,inactive
FAM131B (family with sequence similarity 131 member B),3,-0.43,0.105,inactive
FAM131B (family with sequence similarity 131 member B),4,0.4,0.105,inactive
FAM131B (family with sequence similarity 131 member B),5,-0.99,0.105,inactive
FAM131B (family with sequence similarity 131 member B),6,-0.19,0.105,inactive
PSMB2 (proteasome 20S subunit beta 2),1,-0.16,-1.29,inactive
PSMB2 (proteasome 20S subunit beta 2),2,-0.93,-1.29,inactive
PSMB2 (proteasome 20S subunit beta 2),3,-1.22,-1.29,active
PSMB2 (proteasome 20S subunit beta 2),4,-1.36,-1.29,active
PSMB2 (proteasome 20S subunit beta 2),5,-1.44,-1.29,active
PSMB2 (proteasome 20S subunit beta 2),6,-1.69,-1.29,active
